Our source for the binding values is patent US20220305105A1.

By UniProt entry, the sequences of proteins in these tests, tags left out. Residues count along the entry.
UniProt P35916, residues 25-775: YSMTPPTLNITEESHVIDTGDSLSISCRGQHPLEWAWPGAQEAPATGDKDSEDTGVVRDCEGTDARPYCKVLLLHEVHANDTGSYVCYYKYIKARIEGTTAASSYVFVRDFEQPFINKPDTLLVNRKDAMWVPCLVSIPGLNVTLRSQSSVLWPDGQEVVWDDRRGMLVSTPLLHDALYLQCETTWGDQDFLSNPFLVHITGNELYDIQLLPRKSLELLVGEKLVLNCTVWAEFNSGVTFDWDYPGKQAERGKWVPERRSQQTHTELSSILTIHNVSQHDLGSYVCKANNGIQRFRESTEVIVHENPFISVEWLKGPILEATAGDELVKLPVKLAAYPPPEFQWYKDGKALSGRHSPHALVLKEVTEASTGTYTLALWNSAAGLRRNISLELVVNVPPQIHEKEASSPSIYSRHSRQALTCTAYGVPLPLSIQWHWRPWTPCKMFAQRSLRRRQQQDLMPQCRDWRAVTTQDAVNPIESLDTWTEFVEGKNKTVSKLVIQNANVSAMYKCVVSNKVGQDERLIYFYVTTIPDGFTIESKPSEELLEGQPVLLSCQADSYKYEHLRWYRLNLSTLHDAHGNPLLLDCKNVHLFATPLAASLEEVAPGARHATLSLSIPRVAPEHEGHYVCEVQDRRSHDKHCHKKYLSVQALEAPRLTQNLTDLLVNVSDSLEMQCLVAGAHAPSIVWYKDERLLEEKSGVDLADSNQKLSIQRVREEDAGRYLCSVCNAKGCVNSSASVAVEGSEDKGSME
UniProt P35968, residues 20-764: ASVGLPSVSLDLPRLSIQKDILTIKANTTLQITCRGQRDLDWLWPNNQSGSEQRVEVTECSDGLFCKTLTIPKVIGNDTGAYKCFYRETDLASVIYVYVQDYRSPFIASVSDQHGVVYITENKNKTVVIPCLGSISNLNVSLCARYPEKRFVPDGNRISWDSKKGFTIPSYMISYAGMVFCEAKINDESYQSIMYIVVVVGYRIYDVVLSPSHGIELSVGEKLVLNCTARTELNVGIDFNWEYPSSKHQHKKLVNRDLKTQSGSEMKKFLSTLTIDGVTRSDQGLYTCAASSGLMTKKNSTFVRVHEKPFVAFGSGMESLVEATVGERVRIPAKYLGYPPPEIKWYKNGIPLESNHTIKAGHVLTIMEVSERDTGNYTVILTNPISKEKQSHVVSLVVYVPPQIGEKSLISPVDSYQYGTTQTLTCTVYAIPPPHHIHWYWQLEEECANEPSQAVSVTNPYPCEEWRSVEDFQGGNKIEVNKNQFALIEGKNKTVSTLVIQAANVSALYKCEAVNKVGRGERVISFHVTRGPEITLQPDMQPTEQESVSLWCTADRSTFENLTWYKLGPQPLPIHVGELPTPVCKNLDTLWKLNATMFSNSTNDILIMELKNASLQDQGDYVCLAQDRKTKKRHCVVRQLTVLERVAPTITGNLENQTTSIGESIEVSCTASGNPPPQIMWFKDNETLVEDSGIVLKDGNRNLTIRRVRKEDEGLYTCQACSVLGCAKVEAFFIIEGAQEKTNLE
UniProt O43915, residues 89-205: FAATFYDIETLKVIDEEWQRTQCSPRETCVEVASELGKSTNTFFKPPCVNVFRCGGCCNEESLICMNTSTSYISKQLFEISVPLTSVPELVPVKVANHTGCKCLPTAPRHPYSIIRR

These are yes or no findings as the source states them, for the method shown. Some results given as binding are weak or reduced against the parent protein; the word gives no strength.

Test [1] concerns the target recombinant VEGFR-3 (extracellular domain of the VEGF-receptor fused to human IgG Fc region) (human) (UniProt P35916). As to the kind of experiment: ELISA, VEGFR-Fc coated on the plate, bound VEGF detected with protein-specific antibodies. On the technique in general: In an ELISA, binding on a coated surface is turned into a signal by an enzyme label.
The target of test [2] is recombinant VEGFR-2 (extracellular domain of the VEGF-receptor fused to human IgG Fc region) (human) (UniProt P35968). Described as above.

With “Recombinant human VEGF-D (from UniProt O43915 89-205) (ligand)”, the binding result in test [1] and in test [2] was “binds” throughout.
